Test results published in PMC13434705.
No constants are given. Whether binding was seen depends on the method and setting. Binding seen in cells or lysates may run through a third protein. A yes stands for co-enrichment or nearness to the bait. Other partners may have been found.

Protein sequences, listed by entry. Tags and fused reporters are not part of them.
UniProt P09874: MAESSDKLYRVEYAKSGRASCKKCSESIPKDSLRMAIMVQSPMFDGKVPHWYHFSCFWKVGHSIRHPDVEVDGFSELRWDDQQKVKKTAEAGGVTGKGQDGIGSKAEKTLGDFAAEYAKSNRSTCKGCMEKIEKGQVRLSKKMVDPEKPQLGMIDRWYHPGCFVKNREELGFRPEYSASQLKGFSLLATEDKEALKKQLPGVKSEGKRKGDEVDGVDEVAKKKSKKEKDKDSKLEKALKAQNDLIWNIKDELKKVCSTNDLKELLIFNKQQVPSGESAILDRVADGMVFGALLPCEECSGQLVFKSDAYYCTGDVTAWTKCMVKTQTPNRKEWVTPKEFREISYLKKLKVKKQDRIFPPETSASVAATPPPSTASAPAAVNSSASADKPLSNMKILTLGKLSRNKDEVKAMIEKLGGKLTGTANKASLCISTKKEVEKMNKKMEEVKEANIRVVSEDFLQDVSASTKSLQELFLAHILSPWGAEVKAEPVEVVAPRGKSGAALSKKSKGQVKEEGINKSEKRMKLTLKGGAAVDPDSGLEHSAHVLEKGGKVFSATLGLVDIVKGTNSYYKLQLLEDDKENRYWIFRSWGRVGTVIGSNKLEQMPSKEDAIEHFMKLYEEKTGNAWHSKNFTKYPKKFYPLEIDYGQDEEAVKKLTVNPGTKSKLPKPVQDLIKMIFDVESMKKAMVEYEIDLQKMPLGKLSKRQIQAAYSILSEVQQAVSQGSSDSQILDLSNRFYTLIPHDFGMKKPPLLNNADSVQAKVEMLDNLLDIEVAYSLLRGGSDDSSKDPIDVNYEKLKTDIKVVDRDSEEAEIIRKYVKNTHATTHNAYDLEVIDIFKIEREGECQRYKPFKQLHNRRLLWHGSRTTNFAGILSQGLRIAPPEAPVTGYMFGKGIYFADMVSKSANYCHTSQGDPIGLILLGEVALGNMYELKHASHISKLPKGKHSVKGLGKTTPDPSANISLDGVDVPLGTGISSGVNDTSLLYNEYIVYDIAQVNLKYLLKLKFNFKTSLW
UniProt P19474: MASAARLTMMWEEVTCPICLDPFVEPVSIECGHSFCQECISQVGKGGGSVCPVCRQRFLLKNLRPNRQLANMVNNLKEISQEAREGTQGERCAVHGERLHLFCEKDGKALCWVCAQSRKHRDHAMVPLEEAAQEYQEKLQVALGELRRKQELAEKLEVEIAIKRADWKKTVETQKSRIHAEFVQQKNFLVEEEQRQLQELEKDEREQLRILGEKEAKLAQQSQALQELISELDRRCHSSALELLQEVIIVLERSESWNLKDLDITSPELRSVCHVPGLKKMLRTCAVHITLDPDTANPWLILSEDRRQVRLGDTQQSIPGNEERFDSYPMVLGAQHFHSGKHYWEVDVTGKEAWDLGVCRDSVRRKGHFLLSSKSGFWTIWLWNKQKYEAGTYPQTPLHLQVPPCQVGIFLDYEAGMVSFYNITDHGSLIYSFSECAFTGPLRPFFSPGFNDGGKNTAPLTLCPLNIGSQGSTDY

Biological target: Poly(ADP-ribose) polymerase 1 (PARP1), endogenous (human (endogenous in DMS273, SHP77, HEK293T)) (UniProt P09874)
Assay: affinity purification with mass spectrometry; HEK293T cell lysate immunoprecipitated with an anti-PARP1 antibody (control IgG), LC-MS/MS, n = 1

binding: binds
Substance: tripartite motif-containing 21 (TRIM21), endogenous (from UniProt P19474 1-475)
